Test: 16-week dose-ranging study of testosterone ophthalmic solutions in patients with keratoconjunctivitis sicca, serum pharmacokinetics
Format: in vivo, human
Conditions: female and male patients, 16 weeks of dosing
Procedure: Another clinical study entitled “A Multi-Center, Parallel, Randomized, Double-Masked, Vehicle-Controlled, Dose-Ranging Study to Evaluate the Safety, Tolerability and Efficacy of Testosterone 0.01%, 0.1%, and 0.3% Ophthalmic Solutions Administered Twice Daily for 16 weeks in Patients with Keratoconjunctivitis Sicca (KCS)” was conducted to determine the effectiveness of the ocular administration of testosterone in both women and men. This study was a randomized, multi-center, double-masked, parallel-group study of three treatment groups and one vehicle group. Patients were randomized to either 0.01%, 0.1%, 0.3% testosterone or vehicle of 0.3% testosterone ophthalmic solution. […] Serum concentrations of testosterone and dihydrotestosterone were determined by a validated gas chromatography-mass spectrometry (GC-MS) method with a quantitation range for DHT of 0.1 to 100 ng/dL and for testosterone of 1.0 to 1000 ng/dL. Serum concentrations of 3-alpha-androstanediol-glucuronide were quantitated by a validated radioimmunoassay method with a range of quantitation from 0.800 to 100 ng/mL, and serum concentrations of sex hormone binding globulin were determined using a validated two-site immunoradiometric assay (IRMA) method with a range of quantitation of 5 to 320 nmol/L for a 1:100 diluted sample.

**Q.** Which “serum 3-alpha-androstanediol glucuronide concentration” value does the source give for `C[C@]12CC[C@H]3[C@@H](CCC4=CC(=O)CC[C@@]43C)[C@@H]1CC[C@@H]2O` [testosterone, (17β)-17-Hydroxyandrost-4-en-3-one] here?
**A.** unaffected

**Q.** And the “serum sex hormone binding globulin concentration” value?
**A.** unaffected

Reference: patent US20080045486A1, “OCULAR ADMINISTRATION OF TESTOSTERONE” (priority 2006, published 2008)
